# Reference: article PMC11213860, “Competitive protein recruitment in artificial cells” (Communications Chemistry, 2024)
# Assay: Local concentration of 14-3-3 in coacervates by confocal microscopy with fluorescence calibration curve
substance,measurement,setting,value
14-3-3-His: fluorescently labeled His-tagged 14-3-3 hub protein loaded in coacervates (DyLight 405-labeled 14-3-3γ in Supplementary Fig. 1),median local concentration of 14-3-3 in the coacervates,"bulk concentration 100 nM, DyLight 405-labeled, corrected for degree of labeling",35 ± 11 µM
same,enhancement of concentration compared to the bulk concentration,local versus bulk concentration of 100 nM,350 fold
